Data from PubChem BioAssay AID540256 (National Center for Advancing Translational Sciences (NCATS), 2011).
Screen size: about 300,000 compounds; about 3,700 (1.2%) were called active. The shares of active, inactive and inconclusive entries below differ from those in the screen. Calls come from the whole dose curve; tested in HEK293 cells. Potencies of inconclusive entries are doubtful fits and often do not repeat.

Assay: qHTS for Inhibitors of binding or entry into cells for Lassa Virus; note: nearly all actives have a fitted effect of over 50% in size
Settings: Lassa virus pseudotype entry inhibition, cell reporter; series mostly up to 37.9 µM
Potency is the fitted concentration of half-maximal effect.

SMILES | Potency
Clc1ccc2nc(COc3ccccc3)[nH]c2c1 | inconclusive: 12.6 µM [inhibitor, partial curve]
CCc1nn2c(-c3ccccc3OC)ccnc2c1-c1ccccc1 | inconclusive: 25.1 µM [inhibitor, partial curve, poor fit]
CCOC(=O)N1CCN(Cc2nc(-c3ccccc3)no2)CC1 | inactive
O=C(CCCCn1c(=O)c2ccccc2n(CC(=O)Nc2cccc(C(F)(F)F)c2)c1=O)NCc1ccc2c(c1)OCO2 | inconclusive: 5.62 µM [inhibitor, single point]
Cc1cc(C(=O)Nc2cccc(C)c2C)n(-c2ccccc2)n1 | inconclusive: 10 µM [activator, partial curve, poor fit]
COc1ccc(Cl)cc1NC(=S)N(Cc1cccnc1)Cc1ccco1 | inconclusive: 0.316 µM [inhibitor, partial curve, poor fit]
Cc1cc(C2=NNC(=Nc3ccc(S(=O)(=O)N4CCOCC4)cc3)SC2)c(C)n1C | inconclusive: 29.1 µM [inhibitor, single point]
CC(C)=N/N=C(\N)SCc1ccccc1 | inconclusive: 0.891 µM [inhibitor, full curve, poor fit]
Cc1ccc(NC(=O)CS(=O)c2ccccc2N)c(C)c1 (configuration not stated) | inactive
Cc1ccc(SCc2cn3ccccc3n2)cc1 | inconclusive: 0.562 µM [activator, full curve, poor fit]
CC1CCCCC1NC(=S)Nc1ccc(SC(F)F)cc1 (configuration not stated) | inconclusive: 17.8 µM [inhibitor, single point]
CC(C)Oc1ccc(C(=O)NC2=NCCS2)cc1 | inconclusive: 11.2 µM [inhibitor, partial curve, poor fit]
Cc1c(C(=O)NCc2ccc(Cl)cc2)sc2nc3n(c(=O)c12)CCCCC3 | inactive
CC(=O)c1ccc(NC(=O)COC(=O)c2nc(Cl)ccc2Cl)cc1 | inconclusive: 6.31 µM [inhibitor, single point]
Cc1ccc(NC(=O)c2cccc3c2C(=O)N(C2CCCCC2)C3)c(Cl)c1 | inconclusive: 35.5 µM [activator, partial curve, poor fit]
Cc1sc2ncnc(N3CCCCC3C)c2c1C (configuration not stated) | inconclusive: 4.11 µM [inhibitor, full curve]
CCCc1nn2c(=O)cc(COC(=O)c3cccc(NC(=O)c4cccs4)c3)nc2s1 | inactive
COc1cccc(Cn2c(=O)cc(C)c3c(C)nn(C)c32)c1 | inconclusive: 1.12 µM [inhibitor, partial curve, poor fit]
Cc1[nH]c2ccccc2c1CC#N | inactive
CCn1c(=O)c(=O)[nH]c2cc(C(=O)NCc3ccc(F)cc3)ccc21 | inconclusive: 3.55 µM [inhibitor, partial curve, poor fit]
CC1CCN(C(=O)c2ccccc2NC(=O)Cc2ccccc2)CC1 | inconclusive: 6.31 µM [activator, full curve, poor fit]
Cn1c(C2=C(O)CN(Cc3ccccc3)C2=N)[n+](C)c2ccccc21 | inactive
COc1ccc(C(C)=O)cc1COC(=O)[C@H](Cc1ccccc1)NC(=O)c1ccco1 | inactive

A portion from the list above, as a working copy:
SMILES | Potency
Cc1[nH]c2ccccc2c1CC#N | inactive
CCn1c(=O)c(=O)[nH]c2cc(C(=O)NCc3ccc(F)cc3)ccc21 | inconclusive: 3.55 µM [inhibitor, partial curve, poor fit]

Continuation:

SMILES | Potency
CCC(C)NC(=O)CSc1nnc(-c2ccc(C(C)(C)C)cc2)n1C (configuration not stated) | inconclusive: 20.6 µM [inhibitor, single point]
COc1cc(NC(=O)CC2C(=O)OCCN2Cc2ccccc2)cc(OC)c1 (configuration not stated) | inactive
COc1ccc(C(=O)Nc2cc3c(cc2N2CCOCC2)n(C)c(=O)n3C)cc1OC | inconclusive: 35.5 µM [activator, single point]
O=C(NCc1ccccc1)C12CC3CC(CC(Cl)(C3)C1)C2 | inactive
NS(=O)(=O)c1ccc(SCc2ccccc2)nc1 | inconclusive: 20 µM [inhibitor, single point]
O=C(NCCc1ccccc1)c1ccc(NC(=O)C2CCC2)cc1 | inconclusive: 9.95 µM [activator, partial curve, poor fit]
C[C@H]1[C@@H](C(=O)N2CCCC2)CC(=NOCc2ccccc2)C(=NOCc2ccccc2)C[C@H]1c1ccccc1 | inconclusive: 0.0668 µM [inhibitor, full curve, poor fit]
COc1cc(NS(=O)(=O)c2ccc(NC(=O)c3cccc(F)c3)cc2)nc(OC)n1 | inconclusive: 6.31 µM [inhibitor, single point]
CCn1cc(C(c2ccccc2)C(C(C)=O)[N+](=O)[O-])c2ccccc21 (configuration not stated) | inconclusive: 10 µM [inhibitor, partial curve, poor fit]
COc1ccc(OCc2cc(C(=O)N3CCC(c4ccccc4)CC3)no2)c(Cl)c1 | inactive
CCC(CC)c1nn2c(=O)cc(COc3ccc(NC(=O)c4ccccc4C)cc3)nc2s1 | inconclusive: 3.98 µM [inhibitor, single point]
CCCCC[C@H](O)/C=C/[C@H]1CCC(=O)[C@@H]1CCCCCCC(=O)N1CCCCC1CO (some centres not stated) | inconclusive: 10 µM [inhibitor, partial curve, poor fit]
CCC(CC)C(=O)Nc1cc(NC(=O)C(CC)CC)cc(C(=O)O)c1 | inconclusive: 1.26 µM [inhibitor, single point]
CC1(C)Cc2c(C#N)c(OCC(=O)c3ccc(Cl)cc3)nc(-c3ccoc3)c2CO1 | inactive
COc1ccc(NC(=O)/C(C#N)=C\c2ccc(N3CCOCC3)o2)cc1 | inconclusive: 35.5 µM [inhibitor, single point]
O=C(NC(=S)Nc1ccc2c(c1)OCCO2)c1ccccc1 | inconclusive: 16.4 µM [inhibitor, single point]
COc1ccc(-c2nnc(N(C)C(=O)C3CCCO3)s2)cc1 (configuration not stated) | inactive
NC(=O)C1CCN(c2ccc(S(=O)(=O)N3CCCCC3)cn2)CC1 | inactive
Cc1ccc(-c2csc3nc[nH]c(=S)c23)cc1C | inconclusive: 7.08 µM [inhibitor, full curve, poor fit]
CCC(C)c1ccccc1NC(=O)c1cc2cccc([N+](=O)[O-])c2[nH]1 (configuration not stated) | inconclusive: 35.5 µM [inhibitor, single point]
COc1ccc(-c2cc(C3CC3)nc(N)c2C#N)cc1 | inconclusive: 1.26 µM [inhibitor, full curve, poor fit]
Cc1cc(C)n(-c2ccc(C(=O)Nc3ccc(C)c(S(=O)(=O)N4CCOCC4)c3)cc2)n1 | inconclusive: 20 µM [inhibitor, single point]
O=C(Cc1c(C(=O)O)[nH]c2ccccc12)NC1CCCC1 | inconclusive: 15.8 µM [activator, single point]

Structural class: those above containing a nitro group on carbon.
SMILES | Potency
CCn1cc(C(c2ccccc2)C(C(C)=O)[N+](=O)[O-])c2ccccc21 (configuration not stated) | inconclusive: 10 µM [inhibitor, partial curve, poor fit]
CCC(C)c1ccccc1NC(=O)c1cc2cccc([N+](=O)[O-])c2[nH]1 (configuration not stated) | inconclusive: 35.5 µM [inhibitor, single point]

The list goes on.

SMILES | Potency
C=CCn1c(COc2ccccc2F)nnc1SCC(=O)c1c[nH]c2ccccc12 | inconclusive: 14.1 µM [inhibitor, single point]
COc1ccc(OC)c(C(C(=O)NC2CCCCC2)N(C(=O)c2snc(C(N)=O)c2N)c2ccccc2OC)c1 (configuration not stated) | inconclusive: 10 µM [activator, partial curve, poor fit]
O=C(O)CC(C(=O)Nc1ccc(Cl)c(Cl)c1)C1CCCO1 (configuration not stated) | inconclusive: 0.259 µM [inhibitor, full curve, poor fit]
Cc1ccc(-c2nc(-c3ccccc3)no2)cc1 | inconclusive: 12.6 µM [inhibitor, partial curve, poor fit]
Cc1cccc(N2C(=O)NC(=O)/C(=C\c3cccn3-c3ccc(Cl)cc3)C2=O)c1 | inconclusive: 35.5 µM [inhibitor, single point]
Cc1ccc(/C=C2/NC(=O)N(Cc3ccccc3F)C2=O)o1 | inactive
O=C(N/N=C/c1ccc2c(c1)OCO2)c1ccc(NC(=O)c2ccccc2Cl)cc1 | inconclusive: 35.5 µM [inhibitor, single point]
O=C(CCc1ccc(S(=O)(=O)NC2CCCCC2)cc1)N(Cc1ccccc1)Cc1ccccc1 | inconclusive: 22.4 µM [inhibitor, single point]
O=C(O/N=C1\CCCc2ccccc21)c1cccs1 | inactive
CCOC(=O)c1[nH]c2ccccc2c1NC(=O)c1ccccc1F | inactive
Clc1cccc(Cl)c1CO/N=C/c1c(-c2ccccc2)nc2n1CCS2 | inconclusive: 16.4 µM [inhibitor, single point]
COc1ccc2nc(NC(=O)c3ccc(NS(=O)(=O)c4cccs4)cc3)sc2c1 | inactive
CC(C)(C)N1CCC1CN (configuration not stated) | inconclusive: 3.16 µM [inhibitor, single point]
COc1cc(NC(=O)CN2C(=O)c3ccccc3Sc3ccc(C(=O)N4CCCC4)cc32)cc(OC)c1 | inconclusive: 1 µM [inhibitor, full curve, poor fit]
CC(C)c1cc(Br)ccc1OCCCN1C(=O)NC(C)(C)C1=O | inconclusive: 8.2 µM [inhibitor, partial curve]
Cc1ccnc(NC(=S)N2CCN(c3cccc(C(F)(F)F)c3)CC2)c1 | inconclusive: 12.6 µM [inhibitor, single point]
Cc1ccc(-n2cccc2C(=S)N=P(N(C)C)(N(C)C)N(C)C)cc1 | inconclusive: 35.5 µM [inhibitor, single point]
O=C(Cc1ccccc1)Nc1ccc(C(=O)NCC2COc3ccccc3O2)cc1 (configuration not stated) | inconclusive: 0.708 µM [inhibitor, partial curve, poor fit]
O=S1(=O)N=C(N(CCO)/N=C/C=C/c2ccccc2)c2ccccc21 | inactive
O=C(NCCc1ccccc1)C(=O)NCC(c1ccco1)S(=O)(=O)c1cccs1 (configuration not stated) | inactive
COc1ccc(CCNC(=O)C(=O)NCC2CCCN2S(=O)(=O)c2cccs2)cc1OC (configuration not stated) | inconclusive: 1.26 µM [inhibitor, partial curve, poor fit]
